Data on one molecule can be found in PMC5428262.

No constants are given. Whether binding was seen depends on the method and setting. Binding seen in cells or lysates may run through a third protein. These calls come from enrichment with a bait or labelling near it, and not all partners need be listed. Where a sequence is shown, tags or fusion partners need not be part of it.

The target of the assay is GFP-tagged tomosyn1 (GFP-Tomosyn1), wild type (rat). Nature of the assay: affinity purification with mass spectrometry; GFP-tomosyn1 expressed in INS 832/13 cells under standard culture conditions, immunoprecipitation coupled to LC MS/MS.

B1: secretagogin (INS 832/13 cells) (protein, UniProt Q6R556 1-276)
chain: MDNAHRQTQAHLDAACFWQIWQRFDKDEKGYIKETELDAFFDDLLAKFGIEDTLMEENVQKMKEQLMVGHDISKEGRILMKELASMFLSEDENFLLFFRLETPLDNSVEFMQIWRKYDADSSGFISAAELSNFLRDLFLHHKKVISEAELEEYTSTMEKIFDRNKDGRLDLNDLARILALQENFLLQFKMDASSTEERKRDFEKIFAHYDVSKTGALEGPEVDGFVKDMMELVQPSISGVDLDKFREILLRHCDVNKDGKIQKSELALCLGLKINP
Consider B1, for which the binding result is listed as “binds”.
